Measured data: PubChem BioAssay AID1259308 (NCATS, 2017)

Aim: 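Genes whose loss raises luciferase production in HEK293 cells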 (primary screen)
Cell system: human HEK293 embryonic kidney cells stably expressing firefly luciferase (HEK-CMV-Luc2-Hygro)
Reagent: single siRNA against human genes, 0.8 pmol siRNA per well
Timing: 72 h
Detection: 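Luciferase light (ONE-Glo) measured on one replicate plate set and viability (CellTiter-Glo) on the other, scaled to a negative control siRNA, with robust z-scores and luciferase per cell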
Direction: total luciferase, z-score and total luciferase, % of control: higher = more reporter protein produced; luciferase per cell, z-score: higher = more reporter output per viable cell; viable cells, % of control: higher = more viable cells
Call rule: 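Active when the median/MAD z-score for overall luciferase is greater than 3; a gene was taken forward for validation with new siRNAs if at least two of its three siRNAs passed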
Meaning of the calls: active = raised luciferase; inactive = no rise
This is an unselected part of about 59,000 deposited reagents. About 1,510 of all reagents (2.6%) count as active. 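Calls use total luciferase alone and ignore viability, so some active siRNAs may act by altering cell number.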 The numbers tell different reagents against one gene apart. No sequences are given here.

no.	Gene	reagent	total luciferase, z-score	total luciferase, % of control	luciferase per cell, z-score	viable cells, % of control	outcome
1	C1orf56	1	-0.364	74.6	-0.574	97	inactive
2	C1orf56	2	-0.0405	81.1	-0.385	100	inactive
3	C1orf56	3	3.66	155	2.9	80.5	active
4	EEF1AKMT1	1	-0.0374	81.1	-0.515	104	inactive
5	EEF1AKMT1	2	0.283	87.5	-0.00547	97.9	inactive
6	EEF1AKMT1	3	0.0794	83.5	0.321	85.7	inactive
7	ACVR1B	1	1.25	107	1.31	84.5	inactive
8	ACVR1B	2	-0.259	76.7	-1.21	118	inactive
9	ACVR1B	3	0.572	93.3	0.146	100	inactive
10	FOXI3	1	0.114	84.1	0.149	90.4	inactive
11	FOXI3	2	-0.984	62.3	-1.05	91.9	inactive
12	FOXI3	3	0.36	89	-0.0466	101	inactive
13	FOXI3	4	-0.681	68.3	-0.179	80.1	inactive
14	FOXI3	5	-0.0848	80.2	-0.848	112	inactive
15	FOXI3	6	0.555	92.9	-0.0707	106	inactive
16	CBFA2T2	1	1.34	109	1.09	91.1	inactive
17	CBFA2T2	2	1.68	115	1.71	82.1	inactive
18	CBFA2T2	3	1.02	102	2.02	67.1	inactive
19	CD5L	1	0.0257	82.4	-1.11	123	inactive
20	CD5L	2	0.441	90.6	0.231	95.3	inactive
21	CD5L	3	0.339	88.6	-0.416	111	inactive
22	FGD1	1	-1.1	59.9	-0.459	75.6	inactive
23	FGD1	2	-0.637	69.2	-0.455	87.2	inactive
24	FGD1	3	-0.314	75.6	-0.299	91.5	inactive
25	ZMAT3	1	1.35	109	1.32	85.8	inactive
26	ZMAT3	2	-1.38	54.4	-1.72	95.6	inactive
27	ZMAT3	3	-0.782	66.3	-0.619	87.3	inactive
28	DRC1	1	0.427	90.4	0.505	88.4	inactive
29	DRC1	2	0.947	101	0.727	92.9	inactive
30	DRC1	3	-0.35	74.9	0.183	79.8	inactive
31	FAM245A	1	-0.549	71	0.0118	79	inactive
32	FAM245A	2	0.0139	82.2	0.216	86.7	inactive
33	FAM245A	3	-0.997	62.1	-0.576	80.7	inactive
34	C19orf67	1	0.0314	82.5	0.604	78.6	inactive
35	C19orf67	2	2.36	129	2.95	66.1	inactive
36	C19orf67	3	-0.841	65.2	-0.322	79.2	inactive
37	DPYSL4	1	-0.936	63.3	-0.822	87.8	inactive
38	DPYSL4	2	-0.189	78.1	-0.0306	88	inactive
39	DPYSL4	3	0.0936	83.7	1.54	62.4	inactive

Entries listed so far whose target name starts with A or a:
Gene	reagent	total luciferase, z-score	total luciferase, % of control	luciferase per cell, z-score	viable cells, % of control	outcome
ACVR1B	1	1.25	107	1.31	84.5	inactive
ACVR1B	2	-0.259	76.7	-1.21	118	inactive
ACVR1B	3	0.572	93.3	0.146	100	inactive
